These are yes or no findings as the source states them, for the method shown. Binding seen in cells or lysates may run through a third protein. A result given as binding can be weak or reduced; the word gives no strength. Tags and fused reporters may be left off the sequences shown.
Biological target: Xenopus PP1 (Xenopus laevis (endogenous in oocytes)) (UniProt P36874)
Experiment: co-IP; lysates of Xenopus oocytes micro-injected with cRNA; IP with anti-XePP1 antibodies and Sepharose-protein G; blot with anti-HA; kinetic, band 3 h after microinjection

Amino acid sequences for entries named in this document (tags omitted). A change or cut given only in a name is not applied to a line headed by its entry.
UniProt P36874: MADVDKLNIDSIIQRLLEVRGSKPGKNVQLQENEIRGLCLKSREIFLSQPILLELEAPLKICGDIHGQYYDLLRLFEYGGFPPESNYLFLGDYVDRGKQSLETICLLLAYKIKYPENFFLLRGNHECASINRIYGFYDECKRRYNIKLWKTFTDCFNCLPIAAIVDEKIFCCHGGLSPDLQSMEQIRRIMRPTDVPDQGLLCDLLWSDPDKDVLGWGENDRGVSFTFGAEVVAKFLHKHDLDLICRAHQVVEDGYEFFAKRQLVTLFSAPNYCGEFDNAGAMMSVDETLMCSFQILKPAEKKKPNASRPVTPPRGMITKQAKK

B1: HA-tagged PIP region of PfRCC-PIP, wild type, expressed in Xenopus oocytes (domain or fragment, UniProt Q8I2V4 863-1108)
chain: DEYYEENEQDNDDDDDDDEDDGEDDDDDEDDDDEDDDHHHDDNNDDNKYHIVNYDDDTNNEYEDEESFLSTNFYGEKNNSDNINHKNIIIINKKVSDKDNIVLKSSLKKSSSSDGIKKSVSFSKYVYDLAKNNYEPMNFKSFDDITMSEMDQDDNINVTIPEHTFSQSTNKKIYEKDMNNDTSDNTLDTINNYESTFEMKDNLKEKKDNQGKDLLNSHKQNEKEVIQINHLITNMNKNNTLKEELK
- binding: binds

From publication PMC6220109
